Reference: the supplement of paper PMC10331698
± gives the standard deviation of the averaged measurements. Small differences around the control level are noise.

What was measured:
Experiment in all cases: level (log10 ratio to DMSO vehicle control); higher = higher biomarker level / cell amount than vehicle control
[1] = compound: FC(F)(F)C(F)(F)C(F)(F)C(F)(F)CCI [1H,1H,2H,2H-Perfluorohexyl iodide] (in DMSO); conditions: 2200 nM
Description: (§1)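 BioMAP Diversity Plus panel of 12 human primary cell co-culture systems (3C, 4H, LPS, SAg, BT, BF4T, BE3C, CASM3C, HDF3CGF, KF3CT, MyoF, Mphg). Compounds were added 1 h before stimulation and left for 24 h (MyoF 48 h; BT 72 h for soluble read-outs or 6 d for IgG). Biomarkers were read by ELISA, cytotoxicity by SRB, PBMC viability and proliferation by Alamar Blue. Each well value was divided by the mean of 8 DMSO control wells on the same plate and log10 transformed; duplicate blinded samples were tested at 4 concentrations.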

Hexafluoroglutaric acid = compound: O=C(O)C(F)(F)C(F)(F)C(F)(F)C(=O)O [Hexafluoroglutaric acid] (in DMSO)
Description: as §1

[2] = compound: FC(F)(F)C(F)(F)CNCC(F)(F)C(F)(F)F [Bis(1H,1H-perfluoropropyl)amine] (in DMSO); conditions: 2200 nM
Description: as §1

[3] = compound: OCC(F)(F)C(F)(F)C(F)(F)C(F)(F)C(F)(F)C(F)(F)F [6:1 Fluorotelomer alcohol] (in DMSO); conditions: 2200 nM
Description: as §1

[4] = compound: FC(F)(F)COC(OCC(F)(F)F)OCC(F)(F)F [tris(Trifluoroethoxy)methane] (in DMSO); conditions: 2200 nM
Description: as §1

[5] = compound: O=C(O)C(F)(OC(F)(F)C(F)(F)C(F)(F)F)C(F)(F)F [Ammonium perfluoro-2-methyl-3-oxahexanoate] (in Water)
Description: as §1

[6] = compound: OCCCC(F)(F)C(F)(F)C(F)(F)C(F)(F)C(F)(F)C(F)(F)C(F)(F)C(F)(F)F [3-(Perfluorooctyl)propanol] (in DMSO); conditions: 2200 nM
Description: as §1

[7] = compound: O=C(O)C(F)(OC(F)(F)C(F)(OC(F)(F)C(F)(OC(F)(F)C(F)(F)C(F)(F)F)C(F)(F)F)C(F)(F)F)C(F)(F)F [Perfluoro-(2,5,8-trimethyl-3,6,9-trioxadodecanoic)acid] (in DMSO); conditions: 370 nM
Description: as §1

[8] = compound: O=C(O)C(F)(F)C(F)(F)C(F)(F)OC(F)(C(F)(F)F)C(F)(F)F [Perfluoro-4-isopropoxybutanoic acid] (in DMSO); conditions: 2200 nM
Description: as §1

[9] = compound: O=S(=O)(O)C(F)(F)C(F)(F)C(F)(F)C(F)(F)F [Perfluorobutanesulfonic acid] (in DMSO)
Description: as §1

[10] = compound: OCC(F)(F)C(F)(F)C(F)(F)C(F)(F)C(F)(F)C(F)(F)CO [1H,1H,8H,8H-Perfluorooctane-1,8-diol] (in DMSO); conditions: 2200 nM
Description: as §1

[11] = compound: C=C(C)C(=O)OCCC(F)(F)C(F)(F)C(F)(F)C(F)(F)C(F)(F)C(F)(F)F [6:2 Fluorotelomer methacrylate] (in DMSO); conditions: 2200 nM
Description: as §1

[12] = compound: OCC(F)(F)C(F)(F)C(F)(F)C(F)F [1H,1H,5H-Perfluoropentanol] (in DMSO); conditions: 2200 nM
Description: as §1

Perfluorohexanoic acid = compound: O=C(O)C(F)(F)C(F)(F)C(F)(F)C(F)(F)C(F)(F)F [Perfluorohexanoic acid] (in DMSO)
Description: as §1

[13] = compound: OCC(F)(F)OC(F)(F)C(F)(F)OC(F)(F)CO [1H,1H,8H,8H-Perfluoro-3,6-dioxaoctane-1,8-diol] (in DMSO); conditions: 2200 nM
Description: as §1

[14] = compound: O=C(O)CCC(F)(F)C(F)(F)C(F)(F)F [3:3 Fluorotelomer carboxylic acid] (in DMSO); conditions: 2200 nM
Description: as §1

[15] = compound: CNS(=O)(=O)C(F)(F)C(F)(F)C(F)(F)C(F)(F)C(F)(F)C(F)(F)C(F)(F)C(F)(F)F [N-Methylperfluorooctanesulfonamide] (in DMSO); conditions: 2200 nM
Description: as §1

Row | Test System | level (log10) [1] | level (log10) (Hexafluoroglutaric acid; 2200 nM) | level (log10) (Hexafluoroglutaric acid; 6700 nM) | level (log10) (Hexafluoroglutaric acid; 20000 nM) | level (log10) (Hexafluoroglutaric acid; 60000 nM) | level (log10) [2] | level (log10) [3] | level (log10) [4] | level (log10) ([5]; 2200 nM) | level (log10) ([5]; 6700 nM) | level (log10) ([5]; 20000 nM) | level (log10) ([5]; 60000 nM) | level (log10) [6] | level (log10) [7] | level (log10) [8] | level (log10) ([9]; 2200 nM) | level (log10) ([9]; 6700 nM) | level (log10) ([9]; 20000 nM) | level (log10) ([9]; 60000 nM) | level (log10) [10] | level (log10) [11] | level (log10) [12] | level (log10) (Perfluorohexanoic acid; 2200 nM) | level (log10) (Perfluorohexanoic acid; 6700 nM) | level (log10) (Perfluorohexanoic acid; 20000 nM) | level (log10) (Perfluorohexanoic acid; 60000 nM) | level (log10) [13] | level (log10) [14] | level (log10) [15]
1 | 3C:SRB | -0.0025 ± 0.0064 | -0.008 ± 0.0085 | -0.004 ± 0.0014 | -0.005 ± 0.014 | 0.0075 ± 0.028 | 0.0025 ± 0.0021 | 0 ± 0.0071 | -0.0115 ± 0.0078 | -0.0265 ± 0.023 | -0.019 ± 0.011 | -0.021 ± 0.0042 | -0.045 | 0.0055 ± 0.0078 | -0.0015 ± 0.00071 | -0.0205 ± 0.018 | -0.013 ± 0.011 | 0.004 ± 0.0099 | -0.0095 ± 0.0035 | -0.021 ± 0.0042 | 0.0175 ± 0.025 | -0.0075 ± 0.00071 | -0.0065 ± 0.0035 | -0.0065 ± 0.011 | -0.0065 ± 0.0078 | -0.011 ± 0.0057 | -0.001 ± 0.0028 | -0.009 ± 0.0085 | -0.0055 ± 0.0064 | 0.02 ± 0.0042
2 | 4H:CCL2/MCP-1 | 0.0305 ± 0.026 | 0.019 ± 0.075 | -0.0095 ± 0.032 | -0.0135 ± 0.011 | 0.0245 ± 0.047 | 0.001 ± 0.04 | 0.034 ± 0.03 | 0.021 ± 0.072 | -0.0025 ± 0.04 | 0.0005 ± 0.029 | 0.007 ± 0.037 | 0.008 ± 0.051 | 0.0355 ± 0.076 | -0.001 ± 0.014 | 0.027 ± 0.034 | 0.003 ± 0.024 | -0.021 ± 0.0042 | -0.0095 ± 0.023 | -0.017 ± 0.018 | 0 ± 0.083 | -0.0035 ± 0.026 | 0.0505 ± 0.018 | 0.007 ± 0.04 | -0.0105 ± 0.00071 | -0.027 ± 0.0071 | 0.012 ± 0.021 | 0.0095 ± 0.1 | -0.0175 ± 0.091 | 0.0375 ± 0.033
3 | 4H:CCL26/Eotaxin-3 | 0.002 ± 0.04 | 0.024 ± 0.034 | 0.0155 ± 0.035 | 0.0155 ± 0.013 | 0.0235 ± 0.0078 | 0.083 ± 0.027 | 0.0045 ± 0.023 | 0.026 ± 0.016 | -0.0685 ± 0.036 | -0.0615 ± 0.0021 | -0.064 ± 0.0014 | -0.118 ± 0.012 | 0.0115 ± 0.00071 | -0.0075 ± 0.012 | 0.059 ± 0.023 | -0.009 ± 0.014 | -0.0025 ± 0.054 | -0.001 ± 0.051 | -0.048 ± 0.028 | 0.009 ± 0.042 | -0.0015 ± 0.0092 | 0.006 ± 0.0014 | -0.004 ± 0.0014 | 0.0005 ± 0.005 | -0.004 ± 0.0099 | -0.015 ± 0.0071 | -0.0255 ± 0.0035 | -0.011 ± 0.013 | 0.027 ± 0.013
4 | 4H:CD62P/P-selectin | -0.0175 ± 0.012 | -0.0165 ± 0.015 | 0.0065 ± 0.0035 | -0.035 ± 0.0014 | -0.05 ± 0.064 | -0.0275 ± 0.019 | -0.002 ± 0.11 | 0.02 ± 0.076 | -0.0205 ± 0.057 | -0.0475 ± 0.012 | -0.0065 ± 0.03 | -0.054 ± 0.048 | -0.0345 ± 0.023 | 0.0015 ± 0.035 | 0.015 ± 0.025 | 0.007 ± 0.023 | -0.0155 ± 0.035 | 0.0045 ± 0.016 | -0.0085 ± 0.015 | -0.0115 ± 0.022 | -0.001 ± 0.041 | -0.001 ± 0.0057 | -0.018 ± 0.051 | 0.0235 ± 0.064 | 0.0555 ± 0.032 | 0.0255 ± 0.028 | 0.013 ± 0.031 | 0.0385 ± 0.073 | 0.0245 ± 0.0035
